Results: the M2OR odorant receptor database
Numbering of substitutions follows the chain as printed. The entries are a selection whose mix differs from that of the whole data set. The calls were merged from several studies; some rest on single wells.

The chains behind the UniProt entries cited, without tags or fusion partners. A line that says so, or that is headed by a name, gives the form on record, which may keep a tag or linker.
UniProt Q7TRA2, as listed by the source: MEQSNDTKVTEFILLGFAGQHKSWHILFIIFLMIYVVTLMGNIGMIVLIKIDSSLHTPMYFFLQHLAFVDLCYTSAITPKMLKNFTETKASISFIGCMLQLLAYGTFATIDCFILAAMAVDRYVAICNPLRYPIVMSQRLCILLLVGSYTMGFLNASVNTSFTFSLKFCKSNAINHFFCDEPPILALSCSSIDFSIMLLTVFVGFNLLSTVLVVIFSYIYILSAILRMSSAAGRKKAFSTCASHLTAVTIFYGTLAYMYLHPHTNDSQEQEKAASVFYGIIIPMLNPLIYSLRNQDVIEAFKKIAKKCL
UniProt Q7TR75, as listed by the source: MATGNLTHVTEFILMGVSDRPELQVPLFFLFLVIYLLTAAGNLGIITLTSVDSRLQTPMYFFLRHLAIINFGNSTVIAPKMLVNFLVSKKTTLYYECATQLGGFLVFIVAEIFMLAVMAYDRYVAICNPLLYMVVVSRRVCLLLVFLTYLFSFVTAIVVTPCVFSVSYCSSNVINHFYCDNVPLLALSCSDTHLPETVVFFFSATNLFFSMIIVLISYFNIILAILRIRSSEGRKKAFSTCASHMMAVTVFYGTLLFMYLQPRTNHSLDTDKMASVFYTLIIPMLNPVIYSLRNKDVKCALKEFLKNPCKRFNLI

Columns and labels:
Details in all cases: stereoisomer not certain
UniProt Q3KPB0 = molecular target: T1, UniProt Q3KPB0
T1 sequence (whole entry): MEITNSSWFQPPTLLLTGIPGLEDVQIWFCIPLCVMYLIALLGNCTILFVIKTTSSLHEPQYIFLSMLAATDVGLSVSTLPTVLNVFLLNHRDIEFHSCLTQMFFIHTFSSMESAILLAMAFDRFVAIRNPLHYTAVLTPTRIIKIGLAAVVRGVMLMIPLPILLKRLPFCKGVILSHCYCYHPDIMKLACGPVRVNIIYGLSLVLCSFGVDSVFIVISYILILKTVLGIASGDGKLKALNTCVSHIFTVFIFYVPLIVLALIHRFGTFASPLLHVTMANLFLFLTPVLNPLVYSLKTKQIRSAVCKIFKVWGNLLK
Method in brief: (§1)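 Assay methods differ from source to source, frequently being transient luciferase assays in mammalian cell lines. For each receptor–molecule pair, the label responsive (active) applies when the original authors judged the measured signal statistically different from baseline, and non-responsive (inactive) applies otherwise.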

UniProt Q3U0P3 = molecular target: T2, UniProt Q3U0P3
T2 sequence (whole entry): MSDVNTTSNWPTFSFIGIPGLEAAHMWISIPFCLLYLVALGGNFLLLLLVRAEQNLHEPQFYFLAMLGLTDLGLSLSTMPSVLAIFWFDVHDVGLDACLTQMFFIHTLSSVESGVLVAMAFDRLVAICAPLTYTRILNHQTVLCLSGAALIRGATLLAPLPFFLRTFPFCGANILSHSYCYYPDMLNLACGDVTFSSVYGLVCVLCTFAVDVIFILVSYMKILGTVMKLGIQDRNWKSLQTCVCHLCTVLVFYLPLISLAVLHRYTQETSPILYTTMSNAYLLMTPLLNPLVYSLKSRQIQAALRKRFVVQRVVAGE
Method in brief: as §1

UniProt Q7TQU8 = molecular target: T3, UniProt Q7TQU8
T3 sequence (whole entry): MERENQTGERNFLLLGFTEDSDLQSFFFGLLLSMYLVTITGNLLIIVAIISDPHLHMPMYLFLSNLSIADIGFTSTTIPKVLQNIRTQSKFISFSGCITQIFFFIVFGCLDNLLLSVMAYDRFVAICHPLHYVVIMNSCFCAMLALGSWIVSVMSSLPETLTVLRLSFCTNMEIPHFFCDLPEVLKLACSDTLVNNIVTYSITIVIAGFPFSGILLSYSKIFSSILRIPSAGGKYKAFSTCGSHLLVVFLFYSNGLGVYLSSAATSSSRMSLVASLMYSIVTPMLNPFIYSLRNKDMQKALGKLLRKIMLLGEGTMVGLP
Method in brief: as §1

UniProt Q7TR79 = molecular target: T4, UniProt Q7TR79
T4 sequence (whole entry): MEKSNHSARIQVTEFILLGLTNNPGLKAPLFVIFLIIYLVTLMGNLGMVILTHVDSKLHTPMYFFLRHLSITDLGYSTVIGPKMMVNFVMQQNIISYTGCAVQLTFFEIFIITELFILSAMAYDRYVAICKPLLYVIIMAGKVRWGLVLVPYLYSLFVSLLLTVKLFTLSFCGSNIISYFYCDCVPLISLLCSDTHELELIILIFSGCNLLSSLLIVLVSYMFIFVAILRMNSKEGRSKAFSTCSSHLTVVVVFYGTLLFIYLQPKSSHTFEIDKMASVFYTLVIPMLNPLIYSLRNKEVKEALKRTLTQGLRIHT
Method in brief: as §1

UniProt Q7TQV4 = molecular target: T5, UniProt Q7TQV4
T5 sequence (whole entry): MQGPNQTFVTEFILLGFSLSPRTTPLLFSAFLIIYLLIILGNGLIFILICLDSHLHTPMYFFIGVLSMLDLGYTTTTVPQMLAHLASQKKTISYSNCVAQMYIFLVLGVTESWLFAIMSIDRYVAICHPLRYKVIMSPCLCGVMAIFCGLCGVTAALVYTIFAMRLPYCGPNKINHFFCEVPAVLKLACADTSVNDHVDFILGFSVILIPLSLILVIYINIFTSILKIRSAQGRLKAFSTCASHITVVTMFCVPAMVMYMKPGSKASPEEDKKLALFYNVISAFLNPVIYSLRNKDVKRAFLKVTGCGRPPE
Method in brief: as §1

UniProt Q7TR71 = molecular target: T6, UniProt Q7TR71
T6 sequence (whole entry): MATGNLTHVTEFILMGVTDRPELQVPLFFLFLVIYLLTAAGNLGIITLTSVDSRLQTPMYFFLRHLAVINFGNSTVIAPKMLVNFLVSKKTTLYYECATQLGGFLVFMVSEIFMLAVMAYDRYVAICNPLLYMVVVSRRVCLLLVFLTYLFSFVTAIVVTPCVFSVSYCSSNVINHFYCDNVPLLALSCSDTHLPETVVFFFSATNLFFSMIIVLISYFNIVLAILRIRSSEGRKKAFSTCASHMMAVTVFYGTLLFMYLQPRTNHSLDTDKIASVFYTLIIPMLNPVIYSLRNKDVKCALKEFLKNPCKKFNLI
Method in brief: as §1

UniProt Q7TRA1 = molecular target: T7, UniProt Q7TRA1
T7 sequence (whole entry): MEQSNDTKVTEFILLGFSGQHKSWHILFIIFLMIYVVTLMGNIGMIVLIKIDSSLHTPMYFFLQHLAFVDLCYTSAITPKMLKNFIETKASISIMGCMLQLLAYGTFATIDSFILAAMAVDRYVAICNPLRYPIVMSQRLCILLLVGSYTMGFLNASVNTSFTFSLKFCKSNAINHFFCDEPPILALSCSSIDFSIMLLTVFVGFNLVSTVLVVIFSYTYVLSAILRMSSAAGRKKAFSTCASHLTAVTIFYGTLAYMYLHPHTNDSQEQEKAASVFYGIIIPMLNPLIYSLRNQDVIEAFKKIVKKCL
Method in brief: as §1

UniProt Q7TRA2 = molecular target: T8, UniProt Q7TRA2
T8 sequence (whole entry): T7 sequence (whole entry) with S18A, I86T, I94F, M95I, S112C, V208L, T219I, V221I, V305A
Method in brief: as §1

UniProt Q7TRA3 = molecular target: T9, UniProt Q7TRA3
T9 sequence (whole entry): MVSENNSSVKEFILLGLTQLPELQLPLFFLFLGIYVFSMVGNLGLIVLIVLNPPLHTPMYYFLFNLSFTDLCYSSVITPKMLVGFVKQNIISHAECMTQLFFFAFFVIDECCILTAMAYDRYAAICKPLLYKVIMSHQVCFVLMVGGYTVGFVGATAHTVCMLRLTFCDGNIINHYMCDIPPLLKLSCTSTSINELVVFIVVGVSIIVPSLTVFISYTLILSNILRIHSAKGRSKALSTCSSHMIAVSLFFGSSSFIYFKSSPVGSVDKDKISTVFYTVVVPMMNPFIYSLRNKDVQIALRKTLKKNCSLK
Method in brief: as §1

UniProt Q7TR75 = molecular target: UniProt Q7TR75
Method in brief: as §1

Measured: odorant receptor agonist call

CC(C)C=O
inactive: UniProt Q3KPB0 | UniProt Q3U0P3 | UniProt Q7TQU8 | UniProt Q7TR79

CC(=O)C(C)=O
inactive: UniProt Q3KPB0 | UniProt Q3U0P3 | UniProt Q7TQU8 | UniProt Q7TR79

CC1COCc2cc3c(cc21)C(C)(C)C(C)C3(C)C (configuration not stated)
inactive: UniProt Q3KPB0 | UniProt Q3U0P3 | UniProt Q7TQU8 | UniProt Q7TR79

CCCCCCCCC=O
active: UniProt Q7TRA2
not listed: UniProt Q7TR75
inactive: all other assays above

CC12CCC(C1)C(C)(C)C2=O (configuration not stated)
inactive: UniProt Q7TQV4 | UniProt Q7TR71 | UniProt Q7TRA3

C=CCc1ccc(O)c(OC)c1
inactive: UniProt Q3KPB0 | UniProt Q3U0P3 | UniProt Q7TQU8 | UniProt Q7TR79

CC(C)CC(=O)O
inactive: UniProt Q3KPB0 | UniProt Q3U0P3 | UniProt Q7TQU8 | UniProt Q7TR79

COC(=O)c1ccccc1O
active: UniProt Q3KPB0
inactive: UniProt Q3U0P3 | UniProt Q7TQU8 | UniProt Q7TR79

COc1ccccc1O
inactive: UniProt Q3KPB0 | UniProt Q3U0P3 | UniProt Q7TQU8 | UniProt Q7TR79

C=CC(C)(O)CCC=C(C)C (configuration not stated)
inactive: UniProt Q3KPB0 | UniProt Q3U0P3 | UniProt Q7TQU8 | UniProt Q7TR79

c1cnccn1
inactive: UniProt Q3KPB0 | UniProt Q3U0P3 | UniProt Q7TQU8 | UniProt Q7TR79

CCCCCCCC=O
not listed: UniProt Q7TRA1 | UniProt Q7TRA2 | UniProt Q7TR75
inactive: all other assays above

C=C(C)C1CC=C(C)C(=O)C1 (configuration not stated)
active: UniProt Q7TRA1 | UniProt Q7TRA2
inactive: all other assays above

CC12CCC(CC1)C(C)(C)O2
inactive: UniProt Q3KPB0 | UniProt Q3U0P3 | UniProt Q7TQU8 | UniProt Q7TR79

CCCCO
inactive: UniProt Q3KPB0 | UniProt Q3U0P3 | UniProt Q7TQU8 | UniProt Q7TR79

CCCCCOC(C)=O
inactive: UniProt Q3KPB0 | UniProt Q3U0P3 | UniProt Q7TQU8 | UniProt Q7TR79

CCCCCCC=O
not listed: UniProt Q7TRA1 | UniProt Q7TRA2 | UniProt Q7TR75
inactive: all other assays above

CCCCCC(=O)O
not listed: UniProt Q7TRA1 | UniProt Q7TRA2 | UniProt Q7TR75
inactive: all other assays above

CC(=O)OC1CC2CCC1(C)C2(C)C (configuration not stated)
inactive: UniProt Q3KPB0 | UniProt Q3U0P3 | UniProt Q7TQU8 | UniProt Q7TR79

CCCCCCCCCC=O
not listed: UniProt Q7TRA1 | UniProt Q7TRA2 | UniProt Q7TR75
inactive: all other assays above

COc1cc(C=O)ccc1O
inactive: UniProt Q3KPB0 | UniProt Q3U0P3 | UniProt Q7TQU8 | UniProt Q7TR79

CC(=O)c1ccccc1
active: UniProt Q7TQV4 | UniProt Q7TR71 | UniProt Q7TR75 | UniProt Q7TRA3
inactive: all other assays above

CCCCCC(C)=O
not listed: UniProt Q7TRA1 | UniProt Q7TRA2 | UniProt Q7TR75
inactive: all other assays above

O=C1CCCCCCCCCCCCCCO1
inactive: UniProt Q3KPB0 | UniProt Q3U0P3 | UniProt Q7TQU8 | UniProt Q7TR79

C=CCc1ccc(OC)c(OC)c1
inactive: UniProt Q3KPB0 | UniProt Q3U0P3 | UniProt Q7TQU8 | UniProt Q7TR79

O=C1CCCCC1
active: UniProt Q7TQV4 | UniProt Q7TR71
inactive: UniProt Q7TRA3

CC(C)=CCCC(C)=CC=O
active: UniProt Q7TRA2
inactive: UniProt Q3KPB0 | UniProt Q3U0P3 | UniProt Q7TQU8 | UniProt Q7TR79 | UniProt Q7TRA1

CC(C)(O)CCCC1=CCC(C=O)CC1 (configuration not stated)
not listed: UniProt Q7TRA1 | UniProt Q7TRA2 | UniProt Q7TR75
inactive: all other assays above
